Test results as given in PubChem BioAssay AID1347076 (National Center for Advancing Translational Sciences (NCATS), 2019).
Among all 400,000 compounds or so, about 13,000 (3.2%) were called active. This list was built around the results that the source calls inconclusive (neither active nor inactive); the mix of calls is not that of the screen. Calls follow the shape of the dose curve; as a rule, active = well fitted cell-killing curve with a large enough effect; inconclusive = small, poorly fitted or top-dose-only effect, or effect the other way; inactive = flat fitted curve, though single readings scatter. A potency beside an inconclusive call is a rough fit, not a confirmed value.

Experiment: qHTS assay for MDR1-selective chemotherapeutics: Primary screen using the drug-selected MDR subline cells KB-V1; also: nearly all actives have a fitted effect of over 60% in size
Details: KB-V1 MDR cells viability, CellTiter-Glo, 72 h; activity change, negative = cytotoxicity: at 46.1 µM (top of the series)
Summary of the method: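 In this primary screen, KB-V1 cells overexpressing P-gp are incubated with library compounds (lowest to highest concentration) for 72 h at 37 degrees C before a luminescent ATP viability read.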
% is scaled to controls: 0 for no effect and ±100 for the full control effect; potency is read from the fitted curve at half-maximal effect.

| SMILES | Potency | activity change, negative = cytotoxicity |
| --- | --- | --- |
| CC(=O)NC1CC2CCC(C1)N2 (stereo not drawn) | inconclusive: 18.4 µM [rising, single point] | – |
| CC1[C@H]2Cc3ccc(O)cc3[C@]1(C)CCN2CCc1ccccc1 (stereo partly drawn) | inconclusive: 14.6 µM [cytotoxic, partial curve, poor fit] | – |
| CC(C)=CCN1CC[C@@]2(C)c3cc(O)ccc3C[C@@H]1C2C (stereo partly drawn) | – | inactive: -20.5% |
| O=C(NC1CCCCC1)Oc1cc2oc(=O)sc2cc1Cl | – | inactive: 24.2% |
| COc1cccc(NP2(=O)OCC(C)([N+](=O)[O-])CO2)c1 (stereo not drawn) | – | inactive: -16.8% |
| O=C1NC2C(=CC(O)C(O)C2O)c2cc3c(cc21)OCO3 (stereo not drawn) | active: 2.31 µM | – |
| COC1C(O)C(C)OC(OC2CCC3(C)C(CCC4C3C(O)CC3(C)C(C5=CC(=O)OC5)CCC43O)C2)C1O (stereo not drawn) | active: 0.184 µM | – |
| O=C(Cc1ccc(Br)cc1)N1CCN(Cc2ccccc2)CC1 | inconclusive: 11.2 µM [cytotoxic, single point] | – |
| C#C[C@]1(O)CCC2C3C(=O)C=C4C(Cl)=CCC[C@]4(C)C3CC[C@@]21C (stereo partly drawn) | – | inactive: -0.355% |
| Cc1ccc(CN2CCCN(Cc3ccc(C)cc3)S2(=O)=O)cc1 | inconclusive: 4.11 µM [rising, full curve, poor fit] | – |
| C=C(C)[C@@]12OC3(c4ccccc4)O[C@@H]1C1[C@@H]4O[C@]4(CO)[C@@H](O)[C@]4(O)C(=O)C(C)=C[C@H]4[C@@]1(O3)[C@H](C)[C@H]2OC(=O)/C=C/C=C/c1ccccc1 (stereo partly drawn) | inconclusive: 18.4 µM [cytotoxic, single point] | – |
| O=S(=O)(c1cccc2ccccc12)N1Cc2ccccc2-n2nncc2C1 | inconclusive: 8.2 µM [cytotoxic, partial curve] | – |
| COc1ccc(C(=O)C2CCCN(Cc3ccc(C)s3)C2)c(OC)c1 (stereo not drawn) | inconclusive: 4.11 µM [cytotoxic, full curve] | – |
| NC(=O)c1ccc(N=Cc2c(O)n(Cc3ccco3)c(=O)[nH]c2=O)cc1 | – | inactive: -3.43% |
| COC(=O)C1=C(c2c(C)noc2C)C[C@@H]2CC[C@H]1N2C(=O)NCc1ccc(F)cc1 | inconclusive: 0.206 µM [cytotoxic, full curve, poor fit] | – |
| COc1ccc(C(c2nnnn2C2CCCC2)N2CCC3(CC2)C(=O)NCN3c2ccccc2)cc1 (stereo not drawn) | inconclusive: 29.1 µM [cytotoxic, single point] | – |
| COC(=O)C1=C(c2ccc(-c3ccccc3)c(F)c2)C[C@@H]2CC[C@H]1N2C(=O)N1CCCC1 | inconclusive: 20.6 µM [cytotoxic, single point] | – |
| COc1cccc(-n2c(/C=C/c3ccccn3)nc3ccccc3c2=O)c1 | inconclusive: 16.4 µM [cytotoxic, partial curve, poor fit] | – |

Structures shown so far that have a Cl atom, in the order listed:

| SMILES | Potency | activity change, negative = cytotoxicity |
| --- | --- | --- |
| O=C(NC1CCCCC1)Oc1cc2oc(=O)sc2cc1Cl | – | inactive: 24.2% |
| C#C[C@]1(O)CCC2C3C(=O)C=C4C(Cl)=CCC[C@]4(C)C3CC[C@@]21C (stereo partly drawn) | – | inactive: -0.355% |
